Results deposited as PubChem BioAssay AID1259308 (NCATS, 2017).
In all, the deposit lists about 59,000 reagents; shown is a part drawn at random. About 1,510 of all reagents (2.6%) were called active. 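Calls use total luciferase alone and ignore viability, so some active siRNAs may act by altering cell number.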 Reagents against one gene are numbered here. No sequences are given here.

Purpose: 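Knock-downs that increase output of a recombinant reporter protein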 (primary screen)
System: human HEK293 embryonic kidney cells stably expressing firefly luciferase (HEK-CMV-Luc2-Hygro)
Reagents: single siRNA against human genes, 0.8 pmol siRNA per well
Time to read-out: 72 h
Read-out: 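Luciferase light (ONE-Glo) measured on one replicate plate set and viability (CellTiter-Glo) on the other, scaled to a negative control siRNA, with robust z-scores and luciferase per cell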
Direction: total luciferase, z-score and total luciferase, % of control: higher = more reporter protein produced; luciferase per cell, z-score: higher = more reporter output per viable cell; viable cells, % of control: higher = more viable cells
Call rule: 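Active when the median/MAD z-score for overall luciferase is greater than 3; a gene was taken forward for validation with new siRNAs if at least two of its three siRNAs passed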
Calls: active = raised luciferase; inactive = no rise

no.	gene symbol	reagent	total luciferase, z-score	total luciferase, % of control	luciferase per cell, z-score	viable cells, % of control	outcome
1	SLCO4A1	1	-1.85	45.1	-1.97	84.8	inactive
2	SLCO4A1	2	0.433	90.5	0.296	93.5	inactive
3	SLCO4A1	3	-0.153	78.9	-0.8	109	inactive
4	FGF4	1	-0.996	62.1	-1.17	94.3	inactive
5	FGF4	2	1.49	112	1.17	91.6	inactive
6	FGF4	3	1.56	113	1.14	93.4	inactive
7	FAM131A	1	0.101	83.9	-0.383	104	inactive
8	FAM131A	2	-0.637	69.2	0.14	74.5	inactive
9	FAM131A	3	-0.505	71.8	0.401	72.2	inactive
10	DAPK2	1	1.28	107	0.8	97.2	inactive
11	DAPK2	2	0.179	85.5	-0.0528	96.8	inactive
12	DAPK2	3	0.215	86.2	-0.134	99.7	inactive
13	CABP1	1	1.17	105	1.2	85.8	inactive
14	CABP1	2	-0.401	73.9	-0.586	96.4	inactive
15	CABP1	3	-1.22	57.6	-1.11	86.1	inactive
16	SLC6A13	1	-0.681	68.3	-0.695	91.7	inactive
17	SLC6A13	2	-1.21	57.8	-2.19	115	inactive
18	SLC6A13	3	1.48	111	0.476	110	inactive

Targets listed so far whose gene name begins with C or c (3):
gene symbol	reagent	total luciferase, z-score	total luciferase, % of control	luciferase per cell, z-score	viable cells, % of control	outcome
CABP1	1	1.17	105	1.2	85.8	inactive
CABP1	2	-0.401	73.9	-0.586	96.4	inactive
CABP1	3	-1.22	57.6	-1.11	86.1	inactive

Continued.
no.	gene symbol	reagent	total luciferase, z-score	total luciferase, % of control	luciferase per cell, z-score	viable cells, % of control	outcome
19	SPDYA	1	-1.61	49.8	-0.604	65.2	inactive
20	SPDYA	2	0.149	84.9	-0.107	97.5	inactive
21	SPDYA	3	0.0682	83.2	0.345	84.9	inactive
22	DOC2B	1	-0.177	78.4	-0.49	99.6	inactive
23	DOC2B	2	2.9	140	1.62	102	inactive
24	DOC2B	3	-0.164	78.6	-0.202	92.7	inactive
25	MMRN1	1	-2.1	40.1	-2.66	90.3	inactive
26	MMRN1	2	1.8	118	2.12	75.2	inactive
27	MMRN1	3	0.663	95.1	2	62.8	inactive
28	PRR30	1	1.49	111	0.334	114	inactive
29	PRR30	2	0.929	100	0.617	95.3	inactive
30	PRR30	3	-1.75	47.2	-1.1	70.5	inactive
31	KDM4C	1	1.32	108	0.967	93.6	inactive
32	KDM4C	2	0.781	97.4	0.252	102	inactive
33	KDM4C	3	-0.299	75.9	-0.692	102	inactive
34	CD163	1	-0.555	70.8	-1.03	104	inactive
35	CD163	2	-0.0483	80.9	-0.114	93.2	inactive
36	CD163	3	-0.568	70.6	-0.915	100	inactive
37	C11orf68	1	0.303	87.9	0.307	90.6	inactive
38	C11orf68	2	-2.43	33.5	-2.44	71.2	inactive
39	C11orf68	3	-1.18	58.5	0.158	62.7	inactive
